Data source: PubChem BioAssay AID1224830 (NIAID, 2016)
Purpose: 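Host factors that control LPS-induced TNF expression in human macrophages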 (primary screen). Cells: human THP-1 monocytic leukaemia cells, TNF dual-luciferase reporter clone, PMA-differentiated to macrophage-like cells. Reagent: siRNA pool against human genes, 50 nM. Duration: LPS for 4 h, given about 3 days after siRNA transfection. Conditions: bacterial LPS (TLR4 ligand), 10 ng/ml. Detection: 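Ratio of firefly to renilla light, scaled to the plate median and expressed as a robust z-score per replicate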. Reading the numbers: TNF reporter robust z-score: higher = stronger TNF reporter response to LPS. Call rule: 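Each well counts as active if its z-score is over 2.8 or under -1.5; controls are left without a call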.
The deposit covers about 18,000 reagents; shown is an unselected part. In the full data, about 2,900 (16%) were called active. 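Calls are made per well; low scores hint the gene aids the LPS response, high scores that it dampens it.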 Repeated entries: four replicate wells of each siRNA pool. Reagent sequences are not shown.

| Target gene | TNF reporter robust z-score | Outcome |
| --- | --- | --- |
| APPL1 | 4.6 | active |
| APPL1 | 6.45 | active |
| APPL1 | 6.25 | active |
| APPL1 | 4.13 | active |
| NEK9 | -0.09 | inactive |
| NEK9 | -0.08 | inactive |
| NEK9 | 0.18 | inactive |
| NEK9 | -0.17 | inactive |
| MVD | 0.61 | inactive |
| MVD | 0.29 | inactive |
| MVD | -0.2 | inactive |
| MVD | 0.33 | inactive |
| FNTB | -0.56 | inactive |
| FNTB | -0.14 | inactive |
| FNTB | -0.26 | inactive |
| FNTB | 0.72 | inactive |
| CBX6 | 3.81 | active |
| CBX6 | 2.3 | inactive |
| CBX6 | 1.66 | inactive |
| CBX6 | 2.6 | inactive |
| LCA5L | -0.1 | inactive |
| LCA5L | 0.48 | inactive |
| LCA5L | 0.42 | inactive |
| LCA5L | 0.69 | inactive |
| RAP1B | 0.46 | inactive |
| RAP1B | 0.22 | inactive |
| RAP1B | 1.98 | inactive |
| RAP1B | -0.12 | inactive |
| TENT2 | 1.33 | inactive |
| TENT2 | -0.27 | inactive |
| TENT2 | -0.19 | inactive |
| TENT2 | 0.94 | inactive |
| DHCR24 | 0.12 | inactive |
| DHCR24 | -0.17 | inactive |
| DHCR24 | -0.02 | inactive |
| DHCR24 | 0.86 | inactive |
| CDK4 | 0.08 | inactive |
| CDK4 | 0.34 | inactive |
| CDK4 | -0.2 | inactive |
| CDK4 | 0.27 | inactive |
| RNF5 | 0.84 | inactive |
| RNF5 | 0.75 | inactive |
| RNF5 | 0.46 | inactive |
| RNF5 | -0.97 | inactive |
| SCN11A | -0.82 | inactive |
| SCN11A | -0.63 | inactive |
| SCN11A | 0.86 | inactive |
| SCN11A | 1.56 | inactive |
| CBX4 | 0.16 | inactive |
| CBX4 | 0.83 | inactive |
| CBX4 | 1.26 | inactive |
| CBX4 | 0.89 | inactive |
| CYP2C9 | 5.55 | active |
| CYP2C9 | 0.39 | inactive |
| CYP2C9 | 3.94 | active |
| CYP2C9 | 2.51 | inactive |
| CARM1 | 2.66 | inactive |
| CARM1 | 2.79 | inactive |
| CARM1 | -0.28 | inactive |
| CARM1 | 1.21 | inactive |
| H3C12 | -1.04 | inactive |
| H3C12 | -0.38 | inactive |
| H3C12 | -0.34 | inactive |
| H3C12 | -0.29 | inactive |
| ESYT1 | 1.04 | inactive |
| ESYT1 | 0.89 | inactive |
| ESYT1 | 0.22 | inactive |
| ESYT1 | -0.39 | inactive |
| HBP1 | 0.78 | inactive |
| HBP1 | 1.15 | inactive |
| HBP1 | 0.34 | inactive |
| HBP1 | 2.55 | inactive |
| SPCS2P4 | 2.04 | inactive |
| SPCS2P4 | 1.96 | inactive |
| SPCS2P4 | 0.22 | inactive |
| SPCS2P4 | 2.41 | inactive |
| FKBP1A | 0 | inactive |
| FKBP1A | -0.7 | inactive |
| FKBP1A | -0.9 | inactive |
| COQ6 | -0.18 | inactive |
| COQ6 | -0.11 | inactive |
| COQ6 | -0.29 | inactive |
| COQ6 | 0.4 | inactive |
| GGA3 | -0.97 | inactive |
| GGA3 | -0.62 | inactive |
| GGA3 | -0.42 | inactive |
| GGA3 | -0.67 | inactive |
| SLC25A15 | -1.8 | active |
| SLC25A15 | 0.49 | inactive |
| SLC25A15 | -0.73 | inactive |
| SLC25A15 | 0.18 | inactive |
| ACOX1 | -0.54 | inactive |
| ACOX1 | -0.47 | inactive |
| ACOX1 | -0.68 | inactive |
| ACOX1 | -0.08 | inactive |
| APCDD1 | -1.02 | inactive |
| APCDD1 | -1.14 | inactive |
| APCDD1 | -1.11 | inactive |
| APCDD1 | -1.25 | inactive |
| RPS3A | 0.29 | inactive |
| RPS3A | -0.72 | inactive |
| RPS3A | 0.43 | inactive |
| RPS3A | 1.11 | inactive |
| ZNF34 | 0.05 | inactive |
| ZNF34 | 0.6 | inactive |
| ZNF34 | -1.03 | inactive |
| ZNF34 | -0.11 | inactive |
| SNAP25 | 0.44 | inactive |
| SNAP25 | 0.81 | inactive |
| SNAP25 | 1.82 | inactive |

Entries above whose target name starts with N or n:
| Target gene | TNF reporter robust z-score | Outcome |
| --- | --- | --- |
| NEK9 | -0.09 | inactive |
| NEK9 | -0.08 | inactive |
| NEK9 | 0.18 | inactive |
| NEK9 | -0.17 | inactive |
